Results deposited as PubChem BioAssay AID1224826 (NIAID, 2016).
Aim: 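Genes that change LPS-induced Tnf promoter activity in mouse macrophages when knocked down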 (primary screen). Cells: RAW264.7 G9 macrophages from mouse bearing reporters for p65 (GFP) and the Tnf promoter (mCherry). Reagent: siRNA pool against mouse genes, 100 nM. Time to read-out: 16 h of LPS stimulation, after 2 days of siRNA transfection. Challenge: bacterial lipopolysaccharide (Salmonella minnesota R595), 10 ng/ml. Read-out: 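Imaged Tnf reporter mCherry in nuclei, minus background, normalised per plate to the median and expressed as robust z-scores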. Reading the numbers: Tnf reporter robust z-score: higher = stronger Tnf promoter reporter signal after LPS. Rule for the call: 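a well counts as active at a score of -1.3 or below (Tlr4 knock-down control median) or above 3 (raised signal); controls and wells holding fewer than 50 cells are excluded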. Calls: active = Tnf reporter clearly lowered or raised; inactive = no clear change in Tnf reporter.
In all, the deposit lists about 17,000 reagents; below is an unselected part. In the full data, about 1,110 (6.6%) are marked active. 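Active means lowered or raised reporter signal; replicate intensities are raw and not normalised per plate.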 A reagent listed more than once was tested more than once; the source does not tell the runs apart. Not all columns of the deposit are shown.

Target gene | PubChem SID | Tnf reporter robust z-score | fewer than 50 cells in well | outcome
Pax4 | SID315468393 | -1.26 | enough cells in well | inactive
Robo2 | SID315480809 | – | fewer than 50 cells per well; well left out of calls | inactive
Trim10 | SID315468990 | -0.57 | enough cells in well | inactive
Ifng | SID315467397 | -0.5 | enough cells in well | inactive
Klk9 | SID315476284 | – | fewer than 50 cells per well; well left out of calls | inactive
Pom121 | SID315476657 | -0.37 | enough cells in well | inactive
Vcpip1 | SID315474107 | -0.57 | enough cells in well | inactive
Fbh1 | SID315470824 | 5.3 | enough cells in well | active
Tango6 | SID315480971 | 0.91 | enough cells in well | inactive
Plgrkt | SID315473211 | -1.3 | enough cells in well | active
Defb3 | SID315470573 | 1.99 | enough cells in well | inactive
Phkb | SID315476312 | -0.41 | enough cells in well | inactive
Proz | SID315472706 | 0.01 | enough cells in well | inactive
Dazap2 | SID315470278 | -0.39 | enough cells in well | inactive
Wdr13 | SID315474729 | -0.69 | enough cells in well | inactive
Polr1b | SID315469027 | 0.47 | enough cells in well | inactive
Tuba8 | SID315471109 | 0.16 | enough cells in well | inactive
Sprr2h | SID315469447 | 1.86 | enough cells in well | inactive
Prpf4b | SID315468721 | -0.69 | enough cells in well | inactive
Mgme1 | SID315474999 | -0.11 | enough cells in well | inactive
Gtpbp2 | SID315471357 | -0.13 | enough cells in well | inactive
Tfrc | SID315469827 | 0.42 | enough cells in well | inactive
Pfkfb4 | SID315480930 | 0.06 | enough cells in well | inactive
Ash1l | SID315477400 | 0.13 | enough cells in well | inactive
Ccdc174 | SID315478972 | 0.4 | enough cells in well | inactive
Gtf2b | SID315478751 | 0.32 | enough cells in well | inactive
B230219D22Rik | SID315475581 | -0.82 | enough cells in well | inactive
Tspan15 | SID315474047 | – | fewer than 50 cells per well; well left out of calls | inactive
Zfta | SID315476751 | – | fewer than 50 cells per well; well left out of calls | inactive
Atp8a2 | SID315470831 | 0.05 | enough cells in well | inactive
Pkn2 | SID315476826 | -0.76 | enough cells in well | inactive
Grm2 | SID315476677 | -1.11 | enough cells in well | inactive
Ablim2 | SID315478870 | 0 | enough cells in well | inactive
Impact | SID315467471 | -0.67 | enough cells in well | inactive
Ankmy2 | SID315478127 | -0.66 | enough cells in well | inactive
Arhgap28 | SID315480816 | 1.48 | enough cells in well | inactive
Col7a1 | SID315466065 | 0.34 | enough cells in well | inactive
Grk1 | SID315470286 | -0.35 | enough cells in well | inactive
Grk1 | SID315470286 | -0.68 | enough cells in well | inactive
Polr2j | SID315469032 | – | fewer than 50 cells per well; well left out of calls | inactive
